According to PubChem BioAssay AID493014 (National Center for Advancing Translational Sciences (NCATS), 2011):
This is one part of the list. These are further read-outs of the screen, such as a control signal, another cell line or another target. No call is given for them. The list favours compounds with an active or inconclusive main result. Words in brackets tell the shape of the fitted curve; partial curves, single points and poor fits give uncertain potencies.

Assay: qHTS Assay to Find Inhibitors of Chronic Active B-Cell Receptor Signaling
Conditions: ABC-DLBCL IkBa-CBG/CBR reporter, luminescence ratio (green luciferase fused to IkBa over red control in TMD8 lymphoma cells), 4 h
Method in brief: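 Doxycycline induced both beetle luciferases in TMD8 lymphoma cells; IKK-driven degradation limits the IkappaBalpha-fused green signal, while red luminescence normalises for cell number and nonspecific effects. Compounds tested up to 46 uM, 4 hrs.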

[1] = measured here: CBR red luminescence, cell number
[2] = measured here: IkBa-CBG green luminescence

SMILES	AC50 [1]	AC50 [2]
C=C(C)c1cccc(C(C)(C)NC(=O)N2CCC(C)CC2)c1	16.4 µM [falling, partial curve, poor fit]	–
CCOCc1nnc(NC(=O)c2cccs2)s1	29.1 µM [falling, single point]	–
COc1ccc(-c2csc(Cc3nnc(N4CCOCC4)n3-c3ccccc3)n2)cc1OC	20.6 µM [falling, single point]	–
Cc1ccc(-c2nnc(Nc3cccc(O)c3)c3ccccc23)cc1S(=O)(=O)NCCO	20 µM [falling, single point]	–
CCOC(=O)C1CCN(CC(=O)Nc2c(C(=O)OC)[nH]c3ccc(Cl)cc23)CC1	13 µM [falling, partial curve, poor fit]	–
COc1ccccc1NC(=O)N1CCn2c(nc3ccccc32)C1	11.2 µM [falling, partial curve, poor fit]	–
Cc1cc(SCC#N)n2nc(C)c(-c3ccc(Cl)cc3)c2n1	0.58 µM [rising, full curve, poor fit]	–
CCCC(C(=O)NCc1ccco1)N(C(=O)CNS(=O)(=O)c1ccc(Cl)cc1)C1CCCC1 (stereo not drawn)	20.6 µM [falling, single point]	–
Cc1ccc(S(=O)(=O)N2CCC(C(=O)OCC(=O)NCc3ccco3)CC2)cc1C	29.1 µM [rising, partial curve, poor fit]	–
O=C(Oc1ccc(Cl)cc1)N1CCCCC1	29.1 µM [rising, single point]	–
O=C(c1ccc(Br)cc1)c1cc([N+](=O)[O-])ccc1N1CCOCC1	8.91 µM [rising, partial curve, poor fit]	17.8 µM [falling, single point]
COc1ccccc1C(=O)Nc1ccc2[nH]ncc2c1	11.2 µM [falling, single point]	–
Nn1c(Cc2cccc3ccccc23)nnc1SC1CCOC1=O (stereo not drawn)	32.6 µM [rising, partial curve, poor fit]	–
O=C(Nc1ccccc1)N1CCSCC1	14.1 µM [rising, single point]	–
CCN1CCCc2cc(CN(CCN3CCOCC3)C(=S)Nc3cc(F)cc(F)c3)ccc21	35.5 µM [rising, single point]	–
COc1cc(C(=O)Oc2cc(N)n(S(=O)(=O)c3ccc(F)cc3)n2)cc(OC)c1OC	12.6 µM [falling, single point]	–
COC(=O)c1ccc(NC(=O)c2cc3sccc3n2C)cc1	0.708 µM [falling, full curve]	–
COc1ccc(/C=C/C(=O)c2ccc(OC)cc2OC)c(OC)c1	7.94 µM [falling, partial curve, poor fit]	–
OCCN(CCO)c1nc(N2CCCCC2)c2nc(N(CCO)CCO)nc(N3CCCCC3)c2n1	0.0206 µM [rising, full curve, poor fit]	–
COC(=O)c1c(NC(=O)C(C)(C)C)csc1C	7.94 µM [rising, partial curve]	–

Complete entries as entered above.
O=C(c1ccc(Br)cc1)c1cc([N+](=O)[O-])ccc1N1CCOCC1 in the list: AC50 [1]: 8.91 µM [rising, partial curve, poor fit]; AC50 [2]: 17.8 µM [falling, single point]
CCOC(=O)C1CCN(CC(=O)Nc2c(C(=O)OC)[nH]c3ccc(Cl)cc23)CC1 in the list: AC50 [1]: 13 µM [falling, partial curve, poor fit]
CCN1CCCc2cc(CN(CCN3CCOCC3)C(=S)Nc3cc(F)cc(F)c3)ccc21 in the list: AC50 [1]: 35.5 µM [rising, single point]

Going on with the list:

SMILES	AC50 [1]	AC50 [2]
CCn1c(COc2ccc3c(c2)CCCC3)nnc1SCC(=O)Nc1ccc(C(=O)OC)cc1	20.6 µM [rising, partial curve, poor fit]	–
CCN(CC)C(=O)COc1ccc(/C(C)=N/Nc2ncc(Cl)cc2Cl)cc1	35.5 µM [falling, single point]	31.6 µM [falling, single point]
N#Cc1ccc(-c2ccc(OCC(=O)NCCc3ccccc3)cc2)cc1	0.146 µM [falling, full curve, poor fit]	–
O=c1cc(-c2ccsc2)oc2ccc(-c3ccc4cc[nH]c4c3)cc12	29.1 µM [falling, single point]	–
COc1ccc(/C=C/C(=O)c2ccc(O)cc2)cc1COc1ccc(F)cc1	22.4 µM [falling, single point]	–
CCn1cc(C(=O)N[C@H](C(=O)NCCCO)C(C)C)c(=O)c2cc3c(cc21)OCO3	31.6 µM [rising, single point]	–
CC(C)Cc1nnc(NC(=O)c2cc3c(s2)CCC3)s1	0.0891 µM [rising, full curve, poor fit]	–
Cc1cccc(OCC(=O)N/N=C/c2ccc3c(c2)OCO3)c1	14.1 µM [falling, single point]	–
COc1cc(NC(=O)Cn2c(-c3ccccc3)cc(C(C)=O)c2C)cc(OC)c1	0.708 µM [rising, full curve, poor fit]	–
CCN(CC)CCCNC(=O)c1cc2c(Cl)nc3ccccc3c2s1	11.2 µM [falling, partial curve, poor fit]	11.2 µM [rising, partial curve, poor fit]
CN(CCNC(=O)c1cc2c(-c3ccccc3F)nn(C)c2s1)C1CCCCC1	35.5 µM [falling, single point]	–
CC1(C)CC(=O)C=C(c2ccc(F)cc2OCc2ccccc2)C1	16.4 µM [rising, partial curve]	–
CC(CCCCC(=O)Nc1ccc(C(F)(F)F)cc1)NCCc1cnc[nH]1 (stereo not drawn)	17.8 µM [falling, partial curve]	–
Cc1ccc(C(=O)C(C)N2C(=O)NC(C)(c3ccccc3)C2=O)cc1 (stereo not drawn)	11.2 µM [rising, partial curve, poor fit]	–
COc1ccc(S(=O)(=O)N(C)C)cc1NC(=O)COC(=O)C1CC1	23.1 µM [rising, single point]	–
O=C(COC(=O)c1cccc(Cl)c1Cl)NCc1cccs1	25.9 µM [falling, partial curve, poor fit]	–
COc1ccc(-c2noc(-c3cccs3)n2)cc1OC	5.01 µM [rising, partial curve, poor fit]	–
Cc1ccc2c(c1)N(C(=O)NC1CCCCC1)C(C)(C)CC2C (stereo not drawn)	0.103 µM [rising, full curve, poor fit]	–
Cc1ccc([N+](=O)[O-])cc1-c1ccc(/C=N\n2nnnc2N)o1	23.1 µM [rising, partial curve, poor fit]	–
COc1ccc(CNC(=O)C2CC(=O)N(C3CCCC3)C2)cc1 (stereo not drawn)	0.126 µM [rising, full curve, poor fit]	–
